Here are results for 2 molecules from PMC7935911.

Protein sequences, listed by entry. Tags and fused reporters are not part of them.
UniProt Q02248: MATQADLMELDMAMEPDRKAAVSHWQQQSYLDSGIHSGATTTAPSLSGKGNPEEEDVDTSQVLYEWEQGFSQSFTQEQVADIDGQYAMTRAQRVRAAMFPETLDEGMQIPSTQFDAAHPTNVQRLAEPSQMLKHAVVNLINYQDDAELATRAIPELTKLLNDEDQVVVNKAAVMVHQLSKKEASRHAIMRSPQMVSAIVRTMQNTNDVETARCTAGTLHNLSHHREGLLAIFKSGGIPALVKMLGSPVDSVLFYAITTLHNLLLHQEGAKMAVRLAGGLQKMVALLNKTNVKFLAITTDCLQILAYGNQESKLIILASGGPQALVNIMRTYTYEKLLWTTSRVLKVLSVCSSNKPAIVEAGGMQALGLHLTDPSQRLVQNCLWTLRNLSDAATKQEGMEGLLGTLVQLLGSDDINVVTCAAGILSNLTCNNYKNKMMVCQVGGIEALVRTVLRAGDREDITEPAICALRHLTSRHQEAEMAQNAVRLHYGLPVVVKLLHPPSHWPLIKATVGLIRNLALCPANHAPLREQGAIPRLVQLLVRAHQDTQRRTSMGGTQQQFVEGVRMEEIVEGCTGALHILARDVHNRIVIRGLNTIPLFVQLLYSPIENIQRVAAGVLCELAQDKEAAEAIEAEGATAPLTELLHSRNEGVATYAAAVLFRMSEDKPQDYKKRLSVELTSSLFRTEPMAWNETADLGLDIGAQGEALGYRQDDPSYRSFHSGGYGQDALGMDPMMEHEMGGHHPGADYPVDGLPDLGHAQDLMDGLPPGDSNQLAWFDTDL
UniProt P27782: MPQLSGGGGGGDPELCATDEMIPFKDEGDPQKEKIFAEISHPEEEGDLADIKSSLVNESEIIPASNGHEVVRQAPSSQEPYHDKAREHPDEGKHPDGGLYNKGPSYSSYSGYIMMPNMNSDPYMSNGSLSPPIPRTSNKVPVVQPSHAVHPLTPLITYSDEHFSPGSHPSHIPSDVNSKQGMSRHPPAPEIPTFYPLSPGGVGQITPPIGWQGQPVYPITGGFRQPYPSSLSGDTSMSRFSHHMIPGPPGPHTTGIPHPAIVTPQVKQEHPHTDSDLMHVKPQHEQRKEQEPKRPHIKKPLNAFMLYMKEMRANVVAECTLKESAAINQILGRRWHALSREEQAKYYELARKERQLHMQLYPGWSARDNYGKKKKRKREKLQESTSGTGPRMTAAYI

The target in this experiment is β-catenin (mouse (endogenous in MEFs)) (UniProt Q02248). Briefly: co-IP; nuclear extracts of MEFs (WT; for β-catenin/LEF1 also TG2 KO); 2 mg protein, 4 μg specific antibody, Dynabeads Protein G; lysis buffer 150 mM NaCl, 50 mM Tris-HCl pH 7.5, 2 mM EDTA, 2% NP-40; western blot.

No constants are given. Whether binding was seen depends on the method and setting. Binding seen in cells or lysates may run through a third protein. Some entries that bind do so weakly or less than the wild type.

For the molecule LEF1 (from UniProt P27782 1-397), the binding entry was “binds”.

B1: Type 2 transglutaminase (TG2) (enzyme, UniProt P21981 1-686)
chain: MAEELLLERCDLEIQANGRDHHTADLCQEKLVLRRGQRFRLTLYFEGRGYEASVDSLTFGAVTGPDPSEEAGTKARFSLSDNVEEGSWSASVLDQQDNVLSLQLCTPANAPIGLYRLSLEASTGYQGSSFVLGHFILLYNAWCPADDVYLDSEEERREYVLTQQGFIYQGSVKFIKSVPWNFGQFEDGILDTCLMLLDMNPKFLKNRSRDCSRRSSPIYVGRVVSAMVNCNDDQGVLLGRWDNNYGDGISPMAWIGSVDILRRWKEHGCQQVKYGQCWVFAAVACTVLRCLGIPTRVVTNYNSAHDQNSNLLIEYFRNEFGELESNKSEMIWNFHCWVESWMTRPDLQPGYEGWQAIDPTPQEKSEGTYCCGPVSVRAIKEGDLSTKYDAPFVFAEVNADVVDWIRQEDGSVLKSINRSLVVGQKISTKSVGRDDREDITHTYKYPEGSPEEREVFTKANHLNKLAEKEETGVAMRIRVGDSMSMGNDFDVFAHIGNDTSETRECRLLLCARTVSYNGVLGPECGTEDINLTLDPYSENSIPLRILYEKYSGCLTESNLIKVRGLLIEPAANSYLLAERDLYLENPEIKIRVLGEPKQNRKLVAEVSLKNPLSDPLYDCIFTVEGAGLTKEQKSVEVSDPVPAGDLVKARVDLFPTDIGLHKLVVNFQCDKLKSVKGYRNVIIGPA
On to B1, for which the binding entry is reported as “binds”.
